Experimental findings from patent US20150247183 are described below.

Chains of the proteins cited; added tags and fusions are not shown. Lines headed by an entry give the natural chain unless they say otherwise; changes in a name come on top.
UniProt P00970: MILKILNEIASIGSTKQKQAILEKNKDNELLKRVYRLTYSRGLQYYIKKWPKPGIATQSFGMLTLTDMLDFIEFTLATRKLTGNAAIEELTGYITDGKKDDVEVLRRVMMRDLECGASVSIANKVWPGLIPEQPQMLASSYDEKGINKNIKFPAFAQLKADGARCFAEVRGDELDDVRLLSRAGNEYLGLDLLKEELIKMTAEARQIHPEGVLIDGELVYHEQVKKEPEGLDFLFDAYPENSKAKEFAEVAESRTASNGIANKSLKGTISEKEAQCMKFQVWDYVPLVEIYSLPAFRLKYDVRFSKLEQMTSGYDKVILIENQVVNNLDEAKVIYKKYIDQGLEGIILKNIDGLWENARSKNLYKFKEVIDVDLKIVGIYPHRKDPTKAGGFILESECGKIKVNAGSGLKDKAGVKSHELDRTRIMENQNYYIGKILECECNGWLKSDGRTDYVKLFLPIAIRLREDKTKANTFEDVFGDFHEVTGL

Data set [1] has as its target T4 DNA ligase (UniProt P00970). As to the kind of experiment: activity assay. As to conditions: purified recombinant protein.
Data set [2] addresses T1, Exonuclease III (ExoIII) (UniProt P09030).
T1 sequence (looked up, limits assumed): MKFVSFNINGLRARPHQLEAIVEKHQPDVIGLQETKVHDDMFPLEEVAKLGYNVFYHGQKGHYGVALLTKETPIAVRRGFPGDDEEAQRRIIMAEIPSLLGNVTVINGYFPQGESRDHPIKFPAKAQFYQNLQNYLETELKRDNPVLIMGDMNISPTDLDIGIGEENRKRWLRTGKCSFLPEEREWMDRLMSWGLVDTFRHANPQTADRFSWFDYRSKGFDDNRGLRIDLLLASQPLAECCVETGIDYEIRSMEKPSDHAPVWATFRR
As to the kind of experiment: enzyme reaction in vitro. As to conditions: four 2'-OMe U and a T at 3' end of 41; sense strand digested, 2'-OMe-blocked antisense protected; NEBuffer 1, 37 C 1 h; purified recombinant protein; protein details: 100 U/uL, used in NEBuffer 1.

For some of these results: Protein sequences can lack the tags named with them.

“TATTGACGTCCTTCCCCGTACGCCGGGCAATAACGTTTATGT / ACATAAA / CGTTATT / GCCCGGC / GTACGGG / GAAGGAC / GTCAATA [template + six oligomers]”: the “activity on this sequence” value in data set [1] (5' phosphate on 43-47, four 2'-OMe U and a T at 3' end of 47, ligated, Tm and PAGE, 1 mM ATP, 20% DMSO, 16 C 18 h) was “active”.
For “TATTGACGTCCTTCCCCGTACGCCGGGCAATAACGTTTATGT / GCCCGGC / GTACGGG / GAAGGAC [template + 44-46]”, in data set [1] (5' phosphate on oligomers, ligated 3mer by Tm, 1 mM ATP, 20% DMSO, 16 C 18 h), the “activity on this sequence” value is “active”.
On to “TATTGACGTCCTTCCCCGTACGCCGGGCAATAACGTTTATGT (double strand) [template + synthetic antisense duplex]”, for which the “activity on this sequence” value in data set [2] is on record as “active”.
In the case of “TATTGACGTCCTTCCCCGTACGCCGGGCAATAACGTTTATGT / GTACGGG / GAAGGAC [template + 45,46]”, the “activity on this sequence” value in data set [1] (5' phosphate on oligomers, ligated 2mer by Tm, 1 mM ATP, 20% DMSO, 16 C 18 h) is on record as “active”.
Consider “TATTGACGTCCTTCCCCGTACGCCGGGCAATAACGTTTATGT / CGTTATT / GCCCGGC / GTACGGG / GAAGGAC [template + 43-46]”, for which the “activity on this sequence” value in data set [1] (5' phosphate on oligomers, ligated 4mer by Tm, 1 mM ATP, 20% DMSO, 16 C 18 h) is on record as “active”.
As to “TTACAGTAGACAGGTCACTCACCTGCATGTCACTCCGTTGTCGTTC / AACATCACCTAGCCTGCGAACGACAACGGAGTGACATGC / AGGTGAGTGACCTGTCTACTGTAAGATGCAGTCTCTCGTGG [positive control nick]”, the “activity on this sequence” value in data set [1] (5' amino on 56, 5' phosphate and 3' four 2'-OMe U + T on 57, nick ligated, 10 mM MgCl2, 1 mM ATP, 22 C 1 h, no product without ligase) is “active”.
Consider “TATTGACGTCCTTCCCCGTACGCCGGGCAATAACGTTTATGT / ACATAAA / CGTTATT / GCCCGGC / GTACGGG / GAAGGAC [template + 42-46]”, for which the “activity on this sequence” value in data set [1] (5' phosphate on 43-46, ligated 5mer by Tm, 1 mM ATP, 20% DMSO, 16 C 18 h) is “active”.
